{"source": "patent US20200055835A1", "about": "“USE OF TRICYCLIC SESQUITERPENE LACTONES IN THE TREATMENT OF OBESITY AND RELATED DISEASES AND NON-THERAPEUTIC TREATABLE CONDITIONS” (NEEM BIOTECH LTD., priority 2010, published 2020)", "assay": "Food intake and efficiency of assimilation (bomb calorimeter) in the rat feeding experiment", "assay_type": "in vivo, Sprague-Dawley (SD) rats", "conditions": "0.1% in chow"}
{"compound": "C=C(CO)C(=O)OC1CC(=C)C2CC(O)C(=C)C2C2OC(=O)C(=C)C12", "note": "(centres unmarked) [Cynaropicrin, (8-hydroxy-3,6,9-trimethylidene-2-oxo-3a,4,5,6a,7,8,9a, 9b-octahydroazuleno[4,5-b]furan-4-yl) 2-(hydroxymethyl)prop-2-enoate]", "values": [{"measurement": "assimilation efficiency", "setting": "HF (high fat diet, 34% fat)", "result": 83, "unit": "%"}, {"measurement": "assimilation efficiency", "setting": "LF (balanced diet, 4% fat)", "result": 86, "unit": "%"}]}
